# Measured values taken from the supplement of paper PMC12823440, “Inhibitors supercharge kinase turnover through native proteolytic circuits” (Nature, 2025).
# The chains behind the UniProt entries cited, without tags or fusion partners. Where a name states a change or a piece, a line headed by the entry shows the natural chain unless it says otherwise.
# UniProt P00519, whole entry: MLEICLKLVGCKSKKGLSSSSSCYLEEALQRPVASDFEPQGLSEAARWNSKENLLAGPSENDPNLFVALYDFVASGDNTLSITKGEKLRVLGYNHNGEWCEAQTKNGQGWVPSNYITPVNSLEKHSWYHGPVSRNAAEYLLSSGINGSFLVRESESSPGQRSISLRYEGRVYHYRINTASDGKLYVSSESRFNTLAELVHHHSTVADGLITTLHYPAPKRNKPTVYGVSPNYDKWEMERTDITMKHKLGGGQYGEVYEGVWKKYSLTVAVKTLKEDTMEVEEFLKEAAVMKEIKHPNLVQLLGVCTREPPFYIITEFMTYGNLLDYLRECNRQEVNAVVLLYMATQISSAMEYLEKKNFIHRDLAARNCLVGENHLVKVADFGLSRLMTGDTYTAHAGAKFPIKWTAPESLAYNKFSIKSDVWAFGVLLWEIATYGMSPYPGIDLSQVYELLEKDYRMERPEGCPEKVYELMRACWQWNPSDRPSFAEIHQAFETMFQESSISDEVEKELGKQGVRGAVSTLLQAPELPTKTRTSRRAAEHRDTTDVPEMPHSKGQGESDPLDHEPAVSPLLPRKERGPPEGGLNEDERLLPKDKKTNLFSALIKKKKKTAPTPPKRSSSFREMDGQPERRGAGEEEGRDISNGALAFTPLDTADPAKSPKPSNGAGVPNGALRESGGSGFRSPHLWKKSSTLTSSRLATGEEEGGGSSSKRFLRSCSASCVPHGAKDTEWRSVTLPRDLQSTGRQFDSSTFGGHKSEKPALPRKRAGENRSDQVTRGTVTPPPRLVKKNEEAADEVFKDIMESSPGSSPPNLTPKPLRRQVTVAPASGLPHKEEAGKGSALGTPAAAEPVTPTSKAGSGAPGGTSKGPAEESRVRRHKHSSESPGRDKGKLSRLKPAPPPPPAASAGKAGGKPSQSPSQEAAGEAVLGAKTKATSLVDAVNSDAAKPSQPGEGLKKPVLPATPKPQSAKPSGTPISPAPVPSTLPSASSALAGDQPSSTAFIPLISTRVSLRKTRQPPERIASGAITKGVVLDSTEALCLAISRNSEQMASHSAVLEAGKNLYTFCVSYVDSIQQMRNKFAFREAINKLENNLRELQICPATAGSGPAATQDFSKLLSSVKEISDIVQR
# UniProt Q9UM73: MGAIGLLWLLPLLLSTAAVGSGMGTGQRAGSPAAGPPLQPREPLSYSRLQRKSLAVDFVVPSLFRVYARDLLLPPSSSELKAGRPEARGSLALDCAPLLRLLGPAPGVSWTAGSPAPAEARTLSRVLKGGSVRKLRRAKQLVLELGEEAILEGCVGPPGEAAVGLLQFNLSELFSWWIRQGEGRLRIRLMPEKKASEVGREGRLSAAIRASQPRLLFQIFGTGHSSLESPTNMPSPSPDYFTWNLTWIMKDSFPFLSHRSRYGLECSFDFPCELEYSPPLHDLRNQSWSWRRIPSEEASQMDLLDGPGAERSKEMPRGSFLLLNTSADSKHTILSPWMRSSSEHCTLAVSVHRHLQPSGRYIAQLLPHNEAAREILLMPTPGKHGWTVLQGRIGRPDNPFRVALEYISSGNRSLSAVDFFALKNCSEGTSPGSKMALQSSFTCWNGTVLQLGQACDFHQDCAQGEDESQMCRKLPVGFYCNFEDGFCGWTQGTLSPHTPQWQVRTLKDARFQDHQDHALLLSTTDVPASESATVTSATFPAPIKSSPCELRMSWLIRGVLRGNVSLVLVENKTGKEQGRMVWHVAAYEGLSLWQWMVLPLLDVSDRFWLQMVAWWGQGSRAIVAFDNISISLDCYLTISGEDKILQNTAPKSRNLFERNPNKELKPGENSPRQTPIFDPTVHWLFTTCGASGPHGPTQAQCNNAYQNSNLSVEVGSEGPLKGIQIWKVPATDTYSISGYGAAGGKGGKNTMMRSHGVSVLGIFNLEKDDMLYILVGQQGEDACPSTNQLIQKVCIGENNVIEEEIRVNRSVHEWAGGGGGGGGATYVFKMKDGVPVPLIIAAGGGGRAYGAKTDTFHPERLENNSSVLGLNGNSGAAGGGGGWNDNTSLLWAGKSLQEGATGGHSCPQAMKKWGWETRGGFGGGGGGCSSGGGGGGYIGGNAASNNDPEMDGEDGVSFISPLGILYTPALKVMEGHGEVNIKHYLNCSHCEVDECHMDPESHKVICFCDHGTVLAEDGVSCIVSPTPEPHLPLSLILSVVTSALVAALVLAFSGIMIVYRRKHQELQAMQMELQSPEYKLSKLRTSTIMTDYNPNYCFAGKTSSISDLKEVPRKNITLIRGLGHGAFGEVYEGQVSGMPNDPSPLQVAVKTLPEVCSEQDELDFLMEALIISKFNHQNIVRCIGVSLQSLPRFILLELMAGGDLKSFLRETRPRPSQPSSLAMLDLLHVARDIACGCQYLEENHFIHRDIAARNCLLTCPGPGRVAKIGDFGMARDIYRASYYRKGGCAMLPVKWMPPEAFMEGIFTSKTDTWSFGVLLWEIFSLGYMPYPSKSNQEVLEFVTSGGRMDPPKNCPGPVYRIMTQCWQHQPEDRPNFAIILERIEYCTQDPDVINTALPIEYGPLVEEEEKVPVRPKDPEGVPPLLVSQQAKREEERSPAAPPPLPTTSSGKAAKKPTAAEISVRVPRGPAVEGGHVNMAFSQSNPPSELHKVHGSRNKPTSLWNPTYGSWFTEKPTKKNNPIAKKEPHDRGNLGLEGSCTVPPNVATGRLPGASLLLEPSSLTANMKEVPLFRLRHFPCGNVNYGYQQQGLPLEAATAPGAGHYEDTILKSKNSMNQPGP
# UniProt P10398: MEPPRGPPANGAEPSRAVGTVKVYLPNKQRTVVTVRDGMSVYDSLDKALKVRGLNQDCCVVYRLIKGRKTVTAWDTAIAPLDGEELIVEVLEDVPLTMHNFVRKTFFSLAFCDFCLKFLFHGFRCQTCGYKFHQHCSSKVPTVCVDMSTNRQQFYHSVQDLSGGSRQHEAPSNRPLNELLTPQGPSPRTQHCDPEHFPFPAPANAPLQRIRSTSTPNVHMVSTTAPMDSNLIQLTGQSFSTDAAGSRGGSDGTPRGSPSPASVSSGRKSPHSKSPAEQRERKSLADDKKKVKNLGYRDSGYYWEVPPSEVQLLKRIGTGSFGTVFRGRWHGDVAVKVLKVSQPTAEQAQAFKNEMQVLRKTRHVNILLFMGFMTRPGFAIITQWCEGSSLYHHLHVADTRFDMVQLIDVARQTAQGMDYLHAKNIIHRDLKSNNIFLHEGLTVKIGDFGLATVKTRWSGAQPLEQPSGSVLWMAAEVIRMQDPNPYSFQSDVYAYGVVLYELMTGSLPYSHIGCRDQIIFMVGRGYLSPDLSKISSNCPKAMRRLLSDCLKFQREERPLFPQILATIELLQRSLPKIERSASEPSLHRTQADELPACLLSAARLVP
# UniProt O14965: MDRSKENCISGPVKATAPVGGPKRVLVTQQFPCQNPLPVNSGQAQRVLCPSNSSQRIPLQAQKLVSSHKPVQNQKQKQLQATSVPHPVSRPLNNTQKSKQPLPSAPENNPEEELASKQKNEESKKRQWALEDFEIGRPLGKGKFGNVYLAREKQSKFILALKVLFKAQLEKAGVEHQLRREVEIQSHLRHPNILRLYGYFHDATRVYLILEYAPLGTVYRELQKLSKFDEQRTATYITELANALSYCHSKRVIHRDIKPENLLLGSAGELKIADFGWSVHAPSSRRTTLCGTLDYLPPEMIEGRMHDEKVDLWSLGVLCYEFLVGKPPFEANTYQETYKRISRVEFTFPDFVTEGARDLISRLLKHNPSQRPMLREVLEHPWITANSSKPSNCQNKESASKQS
# UniProt Q96GD4, whole entry: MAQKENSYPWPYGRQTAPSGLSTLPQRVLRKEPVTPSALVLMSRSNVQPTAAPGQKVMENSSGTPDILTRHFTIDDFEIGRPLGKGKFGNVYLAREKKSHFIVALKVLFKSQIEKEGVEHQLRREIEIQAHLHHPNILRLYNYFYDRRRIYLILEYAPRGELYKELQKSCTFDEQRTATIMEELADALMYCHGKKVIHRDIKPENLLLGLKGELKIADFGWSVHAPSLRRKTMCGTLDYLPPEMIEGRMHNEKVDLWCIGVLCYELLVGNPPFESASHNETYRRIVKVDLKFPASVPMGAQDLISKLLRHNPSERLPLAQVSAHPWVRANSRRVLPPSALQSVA
# UniProt Q9UQB9: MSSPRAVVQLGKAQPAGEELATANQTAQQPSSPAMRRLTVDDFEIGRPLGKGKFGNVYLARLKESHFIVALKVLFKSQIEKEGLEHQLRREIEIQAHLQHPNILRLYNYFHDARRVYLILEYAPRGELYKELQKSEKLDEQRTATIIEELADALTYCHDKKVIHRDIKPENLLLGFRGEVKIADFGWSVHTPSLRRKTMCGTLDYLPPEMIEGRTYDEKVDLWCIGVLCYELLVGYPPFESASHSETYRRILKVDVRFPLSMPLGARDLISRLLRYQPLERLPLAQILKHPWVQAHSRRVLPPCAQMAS
# UniProt P51451: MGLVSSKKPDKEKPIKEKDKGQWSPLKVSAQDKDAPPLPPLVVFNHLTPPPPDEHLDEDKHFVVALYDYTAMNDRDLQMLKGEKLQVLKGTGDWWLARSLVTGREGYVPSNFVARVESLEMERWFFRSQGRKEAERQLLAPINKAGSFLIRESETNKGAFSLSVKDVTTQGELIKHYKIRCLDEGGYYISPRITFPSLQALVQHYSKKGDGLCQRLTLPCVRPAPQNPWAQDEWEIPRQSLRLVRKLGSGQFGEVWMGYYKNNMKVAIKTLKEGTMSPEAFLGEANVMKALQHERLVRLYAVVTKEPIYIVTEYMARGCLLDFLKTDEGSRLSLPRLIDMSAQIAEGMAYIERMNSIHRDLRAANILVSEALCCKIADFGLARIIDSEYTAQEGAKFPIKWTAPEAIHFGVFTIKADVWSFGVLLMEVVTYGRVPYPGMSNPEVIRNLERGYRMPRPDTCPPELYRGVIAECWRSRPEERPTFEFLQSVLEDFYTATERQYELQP
# UniProt P51813: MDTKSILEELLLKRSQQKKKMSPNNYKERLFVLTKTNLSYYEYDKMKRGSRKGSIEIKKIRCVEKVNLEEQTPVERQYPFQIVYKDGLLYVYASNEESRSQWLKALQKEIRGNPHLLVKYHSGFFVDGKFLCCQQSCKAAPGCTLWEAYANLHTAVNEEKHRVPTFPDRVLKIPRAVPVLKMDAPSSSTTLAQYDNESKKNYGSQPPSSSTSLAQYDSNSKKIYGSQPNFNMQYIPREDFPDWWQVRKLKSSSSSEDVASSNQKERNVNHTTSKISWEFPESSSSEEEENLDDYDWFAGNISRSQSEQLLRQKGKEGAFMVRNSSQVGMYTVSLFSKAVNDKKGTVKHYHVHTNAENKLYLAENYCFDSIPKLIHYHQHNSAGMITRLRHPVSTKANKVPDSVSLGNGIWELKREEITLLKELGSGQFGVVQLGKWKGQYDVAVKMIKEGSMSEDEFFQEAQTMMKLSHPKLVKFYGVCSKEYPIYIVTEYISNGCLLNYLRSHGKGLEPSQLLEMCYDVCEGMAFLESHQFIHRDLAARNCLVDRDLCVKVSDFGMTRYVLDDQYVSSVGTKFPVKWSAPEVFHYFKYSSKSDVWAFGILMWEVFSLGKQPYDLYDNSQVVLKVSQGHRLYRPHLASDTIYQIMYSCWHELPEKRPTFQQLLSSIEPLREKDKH
# UniProt P15056, whole entry, looked up: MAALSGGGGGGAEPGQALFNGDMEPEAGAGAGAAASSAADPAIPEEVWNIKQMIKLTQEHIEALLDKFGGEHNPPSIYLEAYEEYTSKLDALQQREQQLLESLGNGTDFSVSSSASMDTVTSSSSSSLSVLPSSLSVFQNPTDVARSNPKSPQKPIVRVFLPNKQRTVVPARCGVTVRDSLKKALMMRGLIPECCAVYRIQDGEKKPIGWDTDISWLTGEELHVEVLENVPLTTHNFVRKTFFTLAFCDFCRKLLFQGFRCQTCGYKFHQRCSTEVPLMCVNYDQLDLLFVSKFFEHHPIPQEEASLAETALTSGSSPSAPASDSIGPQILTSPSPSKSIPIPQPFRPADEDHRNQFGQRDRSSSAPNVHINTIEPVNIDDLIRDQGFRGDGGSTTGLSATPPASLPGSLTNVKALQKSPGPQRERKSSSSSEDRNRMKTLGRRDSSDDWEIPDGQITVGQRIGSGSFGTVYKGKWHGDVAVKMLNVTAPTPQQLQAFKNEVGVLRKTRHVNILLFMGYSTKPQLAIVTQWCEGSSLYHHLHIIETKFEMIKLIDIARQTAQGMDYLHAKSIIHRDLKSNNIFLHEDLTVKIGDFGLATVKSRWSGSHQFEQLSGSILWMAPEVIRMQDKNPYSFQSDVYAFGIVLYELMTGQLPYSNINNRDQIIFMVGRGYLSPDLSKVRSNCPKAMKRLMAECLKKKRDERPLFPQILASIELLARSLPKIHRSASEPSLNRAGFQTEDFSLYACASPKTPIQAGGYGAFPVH
# Counter-ions that a name gives are not always drawn. Some of the results follow. The calls rarely recur for the same compound in another form.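 Kinases were expressed as nanoluciferase fusions in K562 cells and luminescence was read every 4 h between 2 and 18 h as percent of control, DMSO set to 100% and a positive control to 0%. A time point counts as decreased when the signal drops significantly (2 sigma). The hit call is the authors' own, does not follow from the count of time points alone, and its rule is not shown.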
# Experiments:
# Assay in all cases: kinase-Nluc reporter destabilization hit call (1 = scored as downregulated) (binary); higher = compound decreases kinase abundance
# Settings in all cases: K562; 2-18 h
# ABL1 = ABL1 (UniProt P00519)
# AKT1 = AKT1 (UniProt P31749)
# ALK = ALK (UniProt Q9UM73)
# ARAF = ARAF (UniProt P10398)
# AURKA = AURKA (UniProt O14965)
# AURKB = AURKB (UniProt Q96GD4)
# AURKC = AURKC (UniProt Q9UQB9)
# BLK = BLK (UniProt P51451)
# BMX = BMX (UniProt P51813)
# BRAF = BRAF (UniProt P15056)
SMILES,kinase-Nluc reporter destabilization hit call (ABL1),kinase-Nluc reporter destabilization hit call (AKT1),kinase-Nluc reporter destabilization hit call (ALK),kinase-Nluc reporter destabilization hit call (ARAF),kinase-Nluc reporter destabilization hit call (AURKA),kinase-Nluc reporter destabilization hit call (AURKB),kinase-Nluc reporter destabilization hit call (AURKC),kinase-Nluc reporter destabilization hit call (BLK),kinase-Nluc reporter destabilization hit call (BMX),kinase-Nluc reporter destabilization hit call (BRAF)
CC(C)(C)n1nc(Cc2ccccc2O)c2c(N)ncnc21 (10 µM),inactive: 0,inactive: 0,inactive: 0,inactive: 0,inactive: 0,inactive: 0,inactive: 0,inactive: 0,inactive: 0,inactive: 0
CCCNC(=O)Nc1ccc(Oc2ncnc3cc(OC)c(OC)cc23)cc1Cl (2.5 µM),inactive: 0,inactive: 0,inactive: 0,inactive: 0,inactive: 0,inactive: 0,inactive: 0,inactive: 0,inactive: 0,inactive: 0
COc1cc2ncnc(Nc3ccc(F)c(Cl)c3)c2cc1NC(=O)/C=C/CN1CCCCC1 [Dacomitinib] (10 µM),inactive: 0,inactive: 0,inactive: 0,inactive: 0,inactive: 0,inactive: 0,inactive: 0,inactive: 0,inactive: 0,inactive: 0
Cn1cc(C2=C(c3cn(CCCSC(=N)N)c4ccccc34)C(=O)NC2=O)c2ccccc21 [Ro 31-8220 (mesylate)] (2.5 µM),inactive: 0,inactive: 0,inactive: 0,inactive: 0,inactive: 0,inactive: 0,inactive: 0,inactive: 0,inactive: 0,inactive: 0
CCN(CC)CCC(=O)N1N=C(c2c(-c3ccccc3)c3cc(Br)ccc3[nH]c2=O)CC1c1ccc(Br)cc1 (stereo not given) (2.5 µM),inactive: 0,inactive: 0,inactive: 0,inactive: 0,active: 1,active: 1,inactive: 0,inactive: 0,inactive: 0,inactive: 0
O=C1/C(=C\c2ccc(Cl)cc2)C=C(c2ccccc2)N1c1ccc(O)cc1 (2.5 µM),inactive: 0,inactive: 0,inactive: 0,inactive: 0,inactive: 0,inactive: 0,inactive: 0,inactive: 0,inactive: 0,inactive: 0
COc1cc(N(C)CCN(C)C)c(N)cc1Nc1nccc(-c2cn(C)c3ccccc23)n1 [Mutated EGFR-IN-1] (10 µM),inactive: 0,inactive: 0,inactive: 0,inactive: 0,inactive: 0,inactive: 0,inactive: 0,inactive: 0,inactive: 0,inactive: 0
O=C(O)c1cc(=O)c2c(OCC(O)COc3cccc4oc(C(=O)O)cc(=O)c34)cccc2o1 [Cromolyn (sodium)] (10 µM),inactive: 0,inactive: 0,inactive: 0,inactive: 0,inactive: 0,inactive: 0,inactive: 0,inactive: 0,inactive: 0,inactive: 0
COc1nn(C)cc1Nc1nccc(-c2c[nH]c3c(NC(=O)[C@@H](C)N4CCN(C)CC4)cccc23)n1 (10 µM),inactive: 0,inactive: 0,inactive: 0,inactive: 0,inactive: 0,inactive: 0,inactive: 0,inactive: 0,inactive: 0,inactive: 0
C=CC(=O)N1CCC[C@H](n2c(=O)n(-c3ccc(Oc4ccccc4)cc3)c3c(N)ncnc32)C1 [ONO-4059 (analog)] (10 µM),inactive: 0,inactive: 0,inactive: 0,inactive: 0,inactive: 0,inactive: 0,inactive: 0,inactive: 0,inactive: 0,inactive: 0
C[C@H](Nc1ncnc2nc[nH]c12)c1cc2cccc(Cl)c2c(=O)n1-c1ccccc1 [Duvelisib] (10 µM),inactive: 0,inactive: 0,inactive: 0,inactive: 0,inactive: 0,inactive: 0,inactive: 0,inactive: 0,inactive: 0,inactive: 0
COc1cc(-c2cn[nH]c2)ccc1C(=O)Nc1ccc2c(c1)CCNCC2 (10 µM),inactive: 0,inactive: 0,inactive: 0,inactive: 0,inactive: 0,inactive: 0,inactive: 0,inactive: 0,inactive: 0,inactive: 0
CCc1cccc(CC)c1NC(=O)N1Cc2[nH]nc(NC(=O)c3ccc(N4CCN(C)CC4)cc3)c2C1 (2.5 µM),inactive: 0,inactive: 0,inactive: 0,inactive: 0,inactive: 0,inactive: 0,inactive: 0,inactive: 0,inactive: 0,inactive: 0
O=c1cc(N2CCOCC2)nc2c3ccccc3ccn12 [Compound 401] (10 µM),inactive: 0,inactive: 0,inactive: 0,inactive: 0,inactive: 0,inactive: 0,inactive: 0,inactive: 0,inactive: 0,inactive: 0
Cn1cc2cc(C(F)(F)c3nnc4ccc(-c5cnn(C6CC6)c5)nn34)c(F)cc2n1 [Bozitinib] (10 µM),inactive: 0,inactive: 0,inactive: 0,inactive: 0,inactive: 0,inactive: 0,inactive: 0,inactive: 0,inactive: 0,inactive: 0
CN1CC[C@@H](c2c(O)cc(O)c3c(=O)cc(-c4ccc(C(F)(F)F)cc4Cl)oc23)[C@@H]1CO [Voruciclib (hydrochloride)] (10 µM),inactive: 0,inactive: 0,inactive: 0,inactive: 0,inactive: 0,inactive: 0,inactive: 0,inactive: 0,inactive: 0,inactive: 0
O=C(Nc1nc(=O)n(Cc2ccc(Cl)cc2)s1)c1ccc(Cl)cc1 (10 µM),inactive: 0,inactive: 0,inactive: 0,inactive: 0,inactive: 0,inactive: 0,inactive: 0,inactive: 0,inactive: 0,inactive: 0
C=CC(=O)N1C[C@H](COc2nc(Nc3cnn(C)c3)nc3[nH]cc(Cl)c23)[C@@H](OC)C1 (2.5 µM),inactive: 0,inactive: 0,inactive: 0,inactive: 0,inactive: 0,inactive: 0,inactive: 0,inactive: 0,inactive: 0,inactive: 0
O=C1O[C@H]([C@@H](O)CO)C(O)=C1OP(=O)(O)O [2-Phospho-L-ascorbic acid (trisodium)] (10 µM),inactive: 0,inactive: 0,inactive: 0,inactive: 0,inactive: 0,inactive: 0,inactive: 0,inactive: 0,inactive: 0,inactive: 0
Cc1ccc2c(Nc3cccc(Cl)c3F)nccc2c1NC(=O)c1csc2c(N)ncnc12 [Belvarafenib] (10 µM),inactive: 0,inactive: 0,inactive: 0,inactive: 0,inactive: 0,inactive: 0,inactive: 0,inactive: 0,inactive: 0,active: 1
CC(C)c1cccc(C(C)C)c1N1C(=O)c2ccc(N)cc2C1=O (2.5 µM),inactive: 0,inactive: 0,inactive: 0,inactive: 0,inactive: 0,inactive: 0,inactive: 0,inactive: 0,inactive: 0,inactive: 0
C[C@H](NC(=O)[C@H]1NCC[C@@H]1O)c1ccc(-c2noc(CCC3CCCC3)n2)cc1 (10 µM),inactive: 0,inactive: 0,inactive: 0,inactive: 0,inactive: 0,inactive: 0,inactive: 0,inactive: 0,inactive: 0,inactive: 0
Cc1cccc(-c2[nH]c(C(C)(C)C)nc2-c2ccc3nccnc3c2)n1 (10 µM),inactive: 0,inactive: 0,inactive: 0,inactive: 0,inactive: 0,inactive: 0,inactive: 0,inactive: 0,inactive: 0,inactive: 0
CN1CCC(c2ccccc2CC(C)(C)Nc2nc(N3CCOCC3)nc(-n3c(C(F)F)nc4ccccc43)n2)CC1 [Zandelisib] (10 µM),inactive: 0,inactive: 0,inactive: 0,inactive: 0,inactive: 0,inactive: 0,inactive: 0,inactive: 0,inactive: 0,inactive: 0
CNC(=O)c1ccccc1Nc1nc(Nc2ccc3c(c2OC)CCC[C@H](N2CCN(CCO)CC2)C3)ncc1Cl (10 µM),active: 1,inactive: 0,inactive: 0,inactive: 0,inactive: 0,inactive: 0,inactive: 0,inactive: 0,inactive: 0,inactive: 0
Cn1cc(-c2c[nH]c3ncnc(N4CCOCC4)c23)cc1C#N (10 µM),inactive: 0,inactive: 0,inactive: 0,inactive: 0,inactive: 0,inactive: 0,inactive: 0,inactive: 0,inactive: 0,inactive: 0
CN(C)CCC=C1c2ccccc2CCc2ccccc21 [Amitriptyline (hydrochloride)] (2.5 µM),inactive: 0,inactive: 0,inactive: 0,inactive: 0,inactive: 0,inactive: 0,inactive: 0,inactive: 0,inactive: 0,inactive: 0
CCn1c(=O)c(-c2cc[nH]n2)cc2c(C)nc(N)nc21 [Voxtalisib] (10 µM),inactive: 0,inactive: 0,inactive: 0,inactive: 0,inactive: 0,inactive: 0,inactive: 0,inactive: 0,inactive: 0,inactive: 0
N#Cc1ccnc(Nc2cc(C3CCN(C4COC4)CC3)cc(N3CCC(F)(F)C3)n2)c1 (2.5 µM),inactive: 0,inactive: 0,inactive: 0,inactive: 0,inactive: 0,inactive: 0,inactive: 0,inactive: 0,inactive: 0,inactive: 0

# A few values from above:
# kinase-Nluc reporter destabilization hit call (AURKA), C=CC(=O)N1C[C@H](COc2nc(Nc3cnn(C)c3)nc3[nH]cc(Cl)c23)[C@@H](OC)C1 (2.5 µM) is entered as inactive: 0
# kinase-Nluc reporter destabilization hit call (AKT1), Cc1cccc(-c2[nH]c(C(C)(C)C)nc2-c2ccc3nccnc3c2)n1 (10 µM) is entered as inactive: 0
